Here are results for 10 substances from patent US20200317759A1.

Assay [1] concerns the target wild-type LukB subunit (S. aureus Newman) (Staphylococcus aureus (Newman)) (UniProt P21224). Briefly: co-expression in E. coli and co-purification.
The target of assay [2] is wild-type LukA subunit (S. aureus Newman) (Staphylococcus aureus (Newman)) (UniProt Q2FFA2). Briefly: co-expression in E. coli and co-purification.

These are yes or no findings as the source states them, for the method shown. In cells and extracts the contact can be indirect. Some results given as binding are weak or reduced against the parent protein; the word gives no strength.

Take “LukA L61Q mutant subunit (from UniProt Q2FFA2 28-351)”: in assay [1], the binding entry is listed as “binds”. For “LukA L61R mutant subunit (from UniProt Q2FFA2 28-351)”, in assay [1], the binding result is on record as “binds”. On the same count and under the same terms, for “LukA D39R mutant subunit (from UniProt Q2FFA2 28-351)” the value was “binds”.

“LukB R23E mutant subunit (from UniProt P21224 30-338)”: in assay [2], the binding entry was “binds”.

Consider “LukA L61N mutant subunit (from UniProt Q2FFA2 28-351)”, for which the binding entry in assay [1] is “binds”. Same read-out and setting: in the case of “LukA D197A mutant subunit (from UniProt Q2FFA2 28-351)” it was “binds”; in that of “LukA D39A mutant subunit (from UniProt Q2FFA2 28-351)”, “binds”. In the case of “LukB R23A mutant subunit (from UniProt P21224 30-338)”, the binding result in assay [2] is “binds”.

Consider “LukB K58A mutant subunit (from UniProt P21224 30-338)”, for which the binding entry in assay [2] was “binds”. Same read-out and setting: in the case of “LukB K58E mutant subunit (from UniProt P21224 30-338)” it was “binds”.
